Values from PubChem BioAssay AID504784 (Drosophila RNAi Screening Center, 2011).

Purpose: 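Genome-wide knock-down for genes giving too much or too little stored lipid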 (primary screen)
System: Drosophila Kc167 embryonic cells
Knock-down reagent: long dsRNA against Drosophila genes, about 250 ng dsRNA per well
Timing: 4 days
Treatment: cells fed 400 µM oleic acid bound to BSA
Detection: 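Microscope images give a droplet-to-nucleus area ratio, taken as log and converted to a screen-wide B-score; higher values mean greater lipid storage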
Reading the numbers: droplet/nuclear area B-score: higher = more stored lipid (overstorage)
In all, the deposit lists about 17,000 reagents; this is an unselected part of those with a known target gene and a result. 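Each column is one replicate's B-score; the combined score over replicates was not deposited, so single values may mislead.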 Names joined by + are all predicted targets of the reagent. Further read-outs or replicates are left out here.

| target gene | DRSC id | droplet/nuclear area B-score, replicate 1 | droplet/nuclear area B-score, replicate 2 |
| --- | --- | --- | --- |
| CG13531 | DRSC04173 | 0.723 | -0.812 |
| Pax | DRSC01703 | 1.7 | -0.265 |
| Pax | DRSC02651 | 1.39 | -2.55 |
| Pax | DRSC02652 | 0.203 | 0.843 |
| rost | DRSC03603 | 1.77 | 0.291 |
| Sdc | DRSC04654 | -1.05 | -0.629 |
| narya | DRSC19439 | -2.11 | -0.747 |
| CG14440 | DRSC17933 | -1.36 | -0.857 |
| CG14440 | DRSC23008 | 0.0347 | 0.853 |
| CG14440 | DRSC23009 | 0.316 | 0.492 |
| CG33225 | DRSC03881 | -1.44 | 1.9 |
| Elp4 | DRSC02999 | 0.978 | 1.03 |
| MKP-4 | DRSC19567 | 0.00417 | -1.33 |
| cyc | DRSC11337 | -0.398 | -0.515 |
| CG5346 | DRSC15778 | 0.177 | – |
| CG5199 | DRSC11770 | -1.13 | 2.3 |
| CG17752 | DRSC15262 | 2.66 | 0.825 |
| CG33223 | DRSC17572 | -1.3 | 1.82 |
| CG10283 | DRSC02034 | 0.165 | 0.962 |
| OS9 | DRSC02700 | 0.238 | 1.11 |
| RluA-1 | DRSC02240 | -1.24 | -1.98 |
| RluA-1 | DRSC03060 | -2.17 | -0.986 |
| CG13947 | DRSC00365 | -1.66 | -0.0752 |
| GstO1 | DRSC10688 | -0.981 | -0.356 |
| Dh44 | DRSC12747 | -0.521 | 0.634 |
| Dh44 | DRSC16409 | -0.277 | -1.06 |
| CG5556 | DRSC00687 | -0.0083 | 1.49 |
| l(3)62Be (retired record) | DRSC08231 | -0.0813 | -0.173 |
| CG5928 | DRSC18391 | -0.079 | 0.0415 |
| CG34227 | DRSC06788 | 0.212 | 1.87 |
| CG34227 | DRSC07034 | 0.25 | 3.15 |
| stops | DRSC15095 | -0.581 | -0.674 |
| stops | DRSC15096 | 0.65 | 0.00593 |
| stops | DRSC15097 | -0.078 | 2.1 |
| ICA69 | DRSC11621 | -0.29 | 0.968 |
| Acyp | DRSC01861 | 2.84 | -0.599 |
| CG13585 | DRSC04221 | 0.287 | -2.07 |
| Snx3 | DRSC16027 | -1.84 | -0.0642 |
| CG15570 | DRSC18058 | 0.594 | 0.402 |
| CG5334 | DRSC19941 | -0.0362 | -0.148 |
| CG6153 | DRSC02935 | 0.519 | 0.00232 |
| CG4598 | DRSC02763 | -1.18 | 0.496 |
| CG14270 | DRSC17913 | 0.187 | 1.46 |
| raw | DRSC03599 | -0.185 | 3.96 |
| raw | DRSC03600 | 2.53 | 2.1 |
| CG32712 | DRSC17820 | 0.758 | -0.502 |
| CG17219 | DRSC00486 | -0.302 | -0.259 |
| spag4 | DRSC02973 | -0.419 | 1.21 |
| CG1428 | DRSC03708 | 1.13 | 0.469 |
| CG32111 (retired record) | DRSC09203 | -0.00497 | 4.19 |
| CG13155 | DRSC06280 | 0.377 | 1.03 |
| CG14450 | DRSC11707 | 0.893 | 1.06 |
| CG10336 | DRSC02037 | -0.2 | -0.669 |
| Peritrophin-15b | DRSC02266 | -0.896 | -1.01 |
| Sf3b3 | DRSC08370 | 1.86 | 0.0807 |
| Sam-S | DRSC00758 | -0.0664 | 0.102 |
| CG33257 | DRSC09917 | -1.35 | 1.27 |
| tun | DRSC05592 | 0.964 | 1.96 |
| tun | DRSC07127 | 0.944 | 0.579 |
| CG34159 | DRSC02885 | -0.343 | 0.436 |
| CG34159 | DRSC23222 | -0.681 | 0.49 |
| TER94 | DRSC07560 | 0.507 | -0.237 |
| ftz-f1 | DRSC11347 | 0.317 | -0.14 |
| LRP1 | DRSC07238 | 0.216 | 2.14 |
| CG16739 | DRSC06621 | 4.12 | 0.515 |
| Nop56 | DRSC14699 | -1.35 | 1.62 |
| CG14567 | DRSC11728 | 0.414 | 0.543 |
| mthl1 | DRSC19905 | -1.94 | -0.588 |
| CG8141 | DRSC16387 | 0.419 | -0.0239 |
| d-cup | DRSC14846 | -1.82 | -1.36 |
| Pkg21D | DRSC00772 | 0.549 | 0.129 |
| Slu7 | DRSC14729 | 1.13 | -0.236 |
| Nrd1 | DRSC19830 | 0.213 | -0.13 |
| Rph | DRSC17790 | 0.215 | -0.332 |
| CG5217 | DRSC15740 | -1.34 | 0.852 |
| CG12782 | DRSC04127 | 2.06 | 0.29 |
| Impbeta11 | DRSC07525 | -1.85 | -1.02 |
| CG14374 | DRSC14834 | -0.989 | 1.39 |
| CG14200 | DRSC19555 | -1.57 | -0.707 |
| CG14200 | DRSC22979 | 0.549 | -1.52 |
| edl | DRSC06516 | -1.23 | -0.0224 |
| Adck5 | DRSC10890 | 0.225 | 1.88 |
| Srrm1 | DRSC09835 | -1.45 | -0.908 |
| mRpS14 | DRSC19444 | 2.31 | 0.174 |
| CG32022 | DRSC09678 | 0.0174 | -0.415 |
| Ugt36A1 + CG15418 | DRSC00432 | 1.24 | -0.748 |
| CG10081 | DRSC05962 | -0.6 | 0.768 |
| att-ORFB + DPCoAC | DRSC15556 | 0.673 | 1.73 |
| CG12237 | DRSC19449 | 0.512 | 0.454 |
| CG12237 | DRSC22256 | 0.742 | 0.00605 |
| CG42369 | DRSC03244 | -3.38 | 0.805 |
| MTPAP | DRSC18585 | 1.79 | 2.55 |
| CG5969 | DRSC11789 | -1.6 | 0.33 |
| CG13869 + CG11099 | DRSC06428 | -0.814 | -0.984 |
| mxt | DRSC00551 | 0.75 | 1.03 |
| CG4707 | DRSC04483 | -0.405 | -0.565 |
| CG30379 | DRSC05070 | -1.67 | 0.134 |
| dpr2 | DRSC02370 | 0.678 | -0.653 |
| dpr2 | DRSC02371 | 0.131 | 0.703 |
| fs(1)Ya | DRSC18776 | 3.9 | 1.69 |
| fs(1)Ya | DRSC23058 | -2.02 | -1.17 |
| Naus | DRSC06011 | 0.0176 | -1.09 |
| Naus | DRSC06469 | 0.24 | 0.918 |
| CG31459 | DRSC13380 | 1.25 | -0.771 |
| CG30383 | DRSC05062 | -0.121 | 0.367 |

Sorted by “droplet/nuclear area B-score, replicate 2” (low to high): some entries from above
| target gene | DRSC id | droplet/nuclear area B-score, replicate 1 | droplet/nuclear area B-score, replicate 2 |
| --- | --- | --- | --- |
| CG13585 | DRSC04221 | 0.287 | -2.07 |
| Acyp | DRSC01861 | 2.84 | -0.599 |
| CG5334 | DRSC19941 | -0.0362 | -0.148 |
| Snx3 | DRSC16027 | -1.84 | -0.0642 |
| CG6153 | DRSC02935 | 0.519 | 0.00232 |
| CG15570 | DRSC18058 | 0.594 | 0.402 |
